Assay: Experiment 2: weight gain of rats restricted to 10 g (later 15 g) chow/day, supplement dissolved in water then solid
Type: in vivo, Sprague Dawley male rats
Conditions: water containing 20 mg/mL compound, first eight days; differences not statistically significant
Description: The animals were maintained in metabolic cages for the duration of the study (FIG. 2). Parameters of behavior and physical appearance were observed daily for any indications of toxicological complications. Twelve Sprague Dawley male rats were restricted to 10 g of Purina Rat Chow per day for eight days. Treatment groups were provided with water containing 20 mg/mL GlcN or GlcNBu. Daily volumes of urine produced and water consumed were recorded. The mean water consumption (ml/day) for the three groups was: 22.80, 24.45 and 21.45 for the control, the GlcN-supplemented and the GlcNBu-supplemented groups, respectively. These values were not statistically significant. On day nine of the study, untreated water was provided and the mass of rat chow given daily was increased to 15 g, supplemented with an additional 1.0 g of solid treatment compound. On day 18, the animals were sacrificed by CO2 asphyxiation and their organs were inspected for damage.

Compound | mean water consumption [mL/day]
N[C@H]1C(O)O[C@H](CO)[C@@H](O)[C@@H]1O (some centres unmarked) [GlcN, glucosamine] | 24.45
CCCC(=O)N[C@H]1C(O)O[C@H](CO)[C@@H](O)[C@@H]1O (stereo partly drawn) [GlcNBu, N-butyryl-D-glucosamine] | 21.45

Source: patent US20040152665A1, “Amelioration of decreased weight and growth by n-acylated glucosamines” (priority 2003, published 2004)
